Paper PMC8706683
These are yes or no findings as the source states them, for the method shown.

By UniProt entry, the sequences of proteins in these tests, tags left out. Residues count along the entry.
UniProt Q91ZX7, residues 20-4545: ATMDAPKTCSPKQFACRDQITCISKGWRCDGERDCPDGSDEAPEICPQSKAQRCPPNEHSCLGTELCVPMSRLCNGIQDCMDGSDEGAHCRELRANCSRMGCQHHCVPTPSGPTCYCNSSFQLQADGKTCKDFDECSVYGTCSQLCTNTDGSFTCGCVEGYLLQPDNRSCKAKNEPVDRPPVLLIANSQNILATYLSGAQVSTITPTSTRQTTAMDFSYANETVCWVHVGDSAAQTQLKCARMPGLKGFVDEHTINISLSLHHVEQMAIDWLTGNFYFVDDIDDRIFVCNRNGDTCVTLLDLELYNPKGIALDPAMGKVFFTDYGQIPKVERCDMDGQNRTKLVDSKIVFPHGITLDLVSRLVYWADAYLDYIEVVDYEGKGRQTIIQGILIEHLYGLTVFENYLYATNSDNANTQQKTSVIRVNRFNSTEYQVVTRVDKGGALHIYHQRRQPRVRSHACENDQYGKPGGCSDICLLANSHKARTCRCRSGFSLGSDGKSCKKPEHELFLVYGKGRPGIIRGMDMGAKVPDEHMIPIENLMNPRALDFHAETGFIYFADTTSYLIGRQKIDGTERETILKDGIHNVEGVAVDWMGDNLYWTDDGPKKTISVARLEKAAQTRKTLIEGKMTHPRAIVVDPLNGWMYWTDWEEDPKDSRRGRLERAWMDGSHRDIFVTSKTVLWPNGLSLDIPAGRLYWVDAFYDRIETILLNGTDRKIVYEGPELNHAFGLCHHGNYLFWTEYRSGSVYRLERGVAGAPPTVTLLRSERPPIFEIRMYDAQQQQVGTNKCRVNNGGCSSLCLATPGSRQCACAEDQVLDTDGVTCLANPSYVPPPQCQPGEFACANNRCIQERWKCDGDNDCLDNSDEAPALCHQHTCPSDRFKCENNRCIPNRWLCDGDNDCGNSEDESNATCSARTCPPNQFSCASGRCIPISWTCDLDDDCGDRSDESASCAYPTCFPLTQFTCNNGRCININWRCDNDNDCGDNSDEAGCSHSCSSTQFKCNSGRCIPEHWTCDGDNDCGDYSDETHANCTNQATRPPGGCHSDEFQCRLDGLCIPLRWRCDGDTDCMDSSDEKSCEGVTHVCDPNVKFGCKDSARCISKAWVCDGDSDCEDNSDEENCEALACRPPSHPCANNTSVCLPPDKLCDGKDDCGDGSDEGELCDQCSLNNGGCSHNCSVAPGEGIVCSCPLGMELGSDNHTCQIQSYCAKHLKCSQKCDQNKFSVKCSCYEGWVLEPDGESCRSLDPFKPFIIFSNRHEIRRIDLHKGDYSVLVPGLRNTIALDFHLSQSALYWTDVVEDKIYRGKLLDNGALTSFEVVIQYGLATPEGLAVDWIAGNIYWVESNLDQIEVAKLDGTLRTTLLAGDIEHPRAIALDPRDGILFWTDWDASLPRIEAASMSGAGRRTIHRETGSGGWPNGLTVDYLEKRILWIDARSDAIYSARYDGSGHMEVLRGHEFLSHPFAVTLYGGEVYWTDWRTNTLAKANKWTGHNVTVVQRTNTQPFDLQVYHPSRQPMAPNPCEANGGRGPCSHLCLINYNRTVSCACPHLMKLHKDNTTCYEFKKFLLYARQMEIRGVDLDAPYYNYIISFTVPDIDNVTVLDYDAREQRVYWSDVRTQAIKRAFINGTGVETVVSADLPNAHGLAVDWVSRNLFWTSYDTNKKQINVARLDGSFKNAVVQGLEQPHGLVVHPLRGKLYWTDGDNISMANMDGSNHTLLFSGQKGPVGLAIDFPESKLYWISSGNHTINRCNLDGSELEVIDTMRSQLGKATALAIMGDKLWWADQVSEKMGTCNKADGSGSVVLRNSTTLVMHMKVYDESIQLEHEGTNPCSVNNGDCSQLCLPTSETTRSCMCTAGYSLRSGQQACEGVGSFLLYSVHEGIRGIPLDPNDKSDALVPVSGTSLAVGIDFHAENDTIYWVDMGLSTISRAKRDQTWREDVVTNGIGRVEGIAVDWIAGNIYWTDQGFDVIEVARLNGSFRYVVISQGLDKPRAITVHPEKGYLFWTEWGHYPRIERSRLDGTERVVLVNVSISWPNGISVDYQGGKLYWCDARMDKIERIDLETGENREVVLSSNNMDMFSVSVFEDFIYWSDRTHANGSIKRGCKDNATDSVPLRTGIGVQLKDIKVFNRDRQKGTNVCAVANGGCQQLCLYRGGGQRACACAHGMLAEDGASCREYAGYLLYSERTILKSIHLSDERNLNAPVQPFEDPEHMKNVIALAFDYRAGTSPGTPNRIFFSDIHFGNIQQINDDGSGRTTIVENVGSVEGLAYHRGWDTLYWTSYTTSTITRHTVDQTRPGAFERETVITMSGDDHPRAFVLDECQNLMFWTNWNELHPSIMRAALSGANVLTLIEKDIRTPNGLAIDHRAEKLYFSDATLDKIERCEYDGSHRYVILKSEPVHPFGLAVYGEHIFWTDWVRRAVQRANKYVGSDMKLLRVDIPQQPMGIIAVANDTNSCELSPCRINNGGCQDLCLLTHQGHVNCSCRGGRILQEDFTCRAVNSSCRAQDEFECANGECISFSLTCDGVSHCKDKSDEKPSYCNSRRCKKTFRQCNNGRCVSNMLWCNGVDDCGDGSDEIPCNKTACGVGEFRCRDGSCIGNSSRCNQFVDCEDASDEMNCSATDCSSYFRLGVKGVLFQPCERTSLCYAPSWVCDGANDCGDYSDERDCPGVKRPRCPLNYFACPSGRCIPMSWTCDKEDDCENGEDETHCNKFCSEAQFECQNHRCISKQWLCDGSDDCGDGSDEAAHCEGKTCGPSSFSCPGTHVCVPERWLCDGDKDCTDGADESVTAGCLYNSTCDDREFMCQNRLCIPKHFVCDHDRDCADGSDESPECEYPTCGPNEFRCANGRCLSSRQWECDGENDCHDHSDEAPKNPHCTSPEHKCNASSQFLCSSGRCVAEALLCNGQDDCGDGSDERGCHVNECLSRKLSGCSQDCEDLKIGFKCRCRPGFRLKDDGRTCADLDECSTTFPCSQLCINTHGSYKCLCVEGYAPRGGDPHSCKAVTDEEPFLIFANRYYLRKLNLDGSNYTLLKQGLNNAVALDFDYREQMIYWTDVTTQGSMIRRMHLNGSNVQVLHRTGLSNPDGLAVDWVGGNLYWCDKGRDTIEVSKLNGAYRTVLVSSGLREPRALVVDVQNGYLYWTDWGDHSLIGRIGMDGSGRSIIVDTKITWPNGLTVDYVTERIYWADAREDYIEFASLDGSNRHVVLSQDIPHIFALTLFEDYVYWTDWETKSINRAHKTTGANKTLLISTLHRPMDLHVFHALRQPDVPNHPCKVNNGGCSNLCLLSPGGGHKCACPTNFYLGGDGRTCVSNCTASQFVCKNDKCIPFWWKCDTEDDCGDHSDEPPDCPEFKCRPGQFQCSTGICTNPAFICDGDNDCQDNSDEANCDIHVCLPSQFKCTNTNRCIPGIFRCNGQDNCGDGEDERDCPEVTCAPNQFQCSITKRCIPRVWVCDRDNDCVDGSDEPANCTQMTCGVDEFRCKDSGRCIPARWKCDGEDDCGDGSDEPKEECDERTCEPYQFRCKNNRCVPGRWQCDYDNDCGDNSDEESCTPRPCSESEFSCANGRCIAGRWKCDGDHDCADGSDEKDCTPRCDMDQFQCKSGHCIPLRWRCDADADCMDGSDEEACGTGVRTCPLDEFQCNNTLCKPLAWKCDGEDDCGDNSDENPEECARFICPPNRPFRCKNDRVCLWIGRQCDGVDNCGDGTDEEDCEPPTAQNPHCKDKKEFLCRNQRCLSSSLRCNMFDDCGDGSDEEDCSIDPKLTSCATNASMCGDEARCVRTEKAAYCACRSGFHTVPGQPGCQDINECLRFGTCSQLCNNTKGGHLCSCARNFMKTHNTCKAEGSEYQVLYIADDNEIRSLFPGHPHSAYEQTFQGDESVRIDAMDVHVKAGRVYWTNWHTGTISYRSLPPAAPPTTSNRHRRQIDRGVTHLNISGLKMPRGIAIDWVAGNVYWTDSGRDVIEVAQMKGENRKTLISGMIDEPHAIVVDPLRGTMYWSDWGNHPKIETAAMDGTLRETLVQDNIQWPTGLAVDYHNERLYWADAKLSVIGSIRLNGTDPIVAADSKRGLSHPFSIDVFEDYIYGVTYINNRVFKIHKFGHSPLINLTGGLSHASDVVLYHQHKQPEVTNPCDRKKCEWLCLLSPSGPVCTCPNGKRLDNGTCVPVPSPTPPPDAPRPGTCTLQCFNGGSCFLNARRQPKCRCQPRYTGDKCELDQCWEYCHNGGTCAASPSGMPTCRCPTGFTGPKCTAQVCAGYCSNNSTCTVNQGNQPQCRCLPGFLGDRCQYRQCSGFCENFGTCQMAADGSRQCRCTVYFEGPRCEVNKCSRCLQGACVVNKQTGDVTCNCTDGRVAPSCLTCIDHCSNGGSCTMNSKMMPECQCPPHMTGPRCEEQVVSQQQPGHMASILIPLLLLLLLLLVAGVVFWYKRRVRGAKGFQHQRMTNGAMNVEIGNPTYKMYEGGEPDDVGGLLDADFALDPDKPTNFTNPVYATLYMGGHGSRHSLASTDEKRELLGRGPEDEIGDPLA

Target: low-density lipoprotein (LDL) receptor-related protein (LRP1) (mouse (endogenous in bEnd.3)) (UniProt Q91ZX7)
Assay: flow cytometry on cells; bEnd.3 cells in cold PBA incubated with constructs in serial dilution for 2 h at 4 °C (on ice) to prevent internalisation; secondary antibody by the detection moiety; median fluorescence intensity; only the binder purified

binding: no binding
Binder: NSFEGTGGEYFTYRKRNFK (FITC-Ahx on the N-terminus) [FITC-scrambled ANG2]
